For 39 compounds, TEAD-luciferase reporter activity results are on record in the supplement of paper PMC10735217.

The test system of the test is HEK293A TEAD-LUC reporter. Kind of test: TEAD-luciferase reporter activity (YAP activation), robust Z score vs plate; higher = stronger YAP/TEAD activation. The settings on record: 24 h.

The structures appear in SMILES notation. Counter-ions that a name gives are not always drawn. Some of the results follow. Repeats in this data set agree poorly, so a single value says little.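 Human kidney-derived cells stably carry a construct in which eight TEAD-binding elements drive luciferase, measured by luminescence in a drug-repurposing library screen. A hit is any compound whose signal exceeds the plate mean by more than five robust Z scores.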

With `C[N+]1(C)[C@@H]2C[C@H](OC(=O)C(O)(c3cccs3)c3cccs3)C[C@H]1[C@H]1O[C@H]12` [Tiotropium bromide], the TEAD-luciferase reporter activity reads like this: (compound concentration: 200 nM) inactive: -0.481; (compound concentration: 2 uM) inactive: -1.04; (compound concentration: 10 uM) inactive: -1.27.
The corresponding values for `N=C(N)NC(CS)C(=O)O` (configuration not stated) are inactive: 1.76, inactive: -0.446 and inactive: 0.847.
Regarding `O=C1NCc2ccccc2CC12CCCCN2Cc1cccc(O)c1` (configuration not stated), the TEAD-luciferase reporter activity was inactive: -0.215 (compound concentration: 200 nM) and inactive: 2.96 (compound concentration: 10 uM).
Consider `CC1OC(n2cc(F)c(=O)[nH]c2=O)C(O)C1O` (configuration not stated) [doxifluridine], for which the TEAD-luciferase reporter activity by setting is: (compound concentration: 200 nM) inactive: 0.608; (compound concentration: 2 uM) inactive: -0.715; (compound concentration: 10 uM) inactive: 1.98.
The corresponding values for `CS(=O)(=O)c1ccc(Cl)cc1Cn1cc(Cl)cc(C(N)=O)c1=N` are inactive: -0.644, inactive: 0.421 and inactive: 1.29.
Consider `Cc1cccc(N2CCN(CCc3ccc4ccccc4n3)CC2)c1`, for which the TEAD-luciferase reporter activity is inactive: 1.34 (compound concentration: 200 nM), inactive: -1.45 (compound concentration: 2 uM) and inactive: -0.21 (compound concentration: 10 uM).
The corresponding values for `Cc1nc(-c2cc(C(=O)N3CCC(c4ccc(C#N)cc4)CC3)c(C)cc2C2CCC2)n[nH]1` are inactive: -0.624, inactive: -0.649 and inactive: -1.68.
For `CNC[C@@H](O)c1cccc(O)c1` [phenylepherine CDT], where the note is “compound concentration: 2 uM”, the TEAD-luciferase reporter activity was inactive: -0.171.
In the case of `CNC[C@@H](O)c1cccc(O)c1` [phenylepherine CDT, SCOLR], the TEAD-luciferase reporter activity (compound concentration: 200 nM) was inactive: -2.46 and the TEAD-luciferase reporter activity (compound concentration: 10 uM) is inactive: 0.843.
The corresponding values for `CNC1C(O)C(OC2C(N)CC(N)C(OC3OC(CN)=CCC3N)C2O)OCC1(C)O` (configuration not stated) [pentisomicin] are inactive: -1.1 and active: 5.34.
Consider `Clc1cc(Cl)c(OCC#CI)cc1Cl`, for which the TEAD-luciferase reporter activity was inactive: -0.0317 (compound concentration: 200 nM), inactive: 0.571 (compound concentration: 2 uM) and inactive: 2.2 (compound concentration: 10 uM).
The corresponding values for `CN(CCC(Oc1ccc(C(F)(F)F)cc1)c1ccccc1)CC(=O)O` (configuration not stated) are inactive: 0.606, inactive: -1.85 and inactive: -1.97.
The corresponding values for `CCCN(CC)C(CC)C(=O)Nc1c(C)cccc1C` (configuration not stated) [Etidocaine hydrochloride] are inactive: -0.147, inactive: -0.42 and inactive: 2.93.
The corresponding values for `COc1cccc2cc(-c3nc([C@H]4CC[C@H](C(=O)O)CC4)n4ncnc(N)c34)[nH]c12` are inactive: -0.427, inactive: -0.781 and inactive: 0.786.
Regarding `CC(=O)Nc1c(I)c(C(=O)N[C@H]2C(O)O[C@H](CO)[C@@H](O)[C@@H]2O)c(I)c(N(C)C(C)=O)c1I` (some centres not stated) [metrizamide], the TEAD-luciferase reporter activity is active: 6.6 (compound concentration: 200 nM), inactive: 0.824 (compound concentration: 2 uM) and inactive: -1.4 (compound concentration: 10 uM).
In the case of `COc1ccc(CC(=O)NC2CCN(c3ccc4ncc(-c5cccc(C(F)(F)F)c5)n4n3)CC2)cc1`, the TEAD-luciferase reporter activity was inactive: -0.461 (compound concentration: 200 nM) and inactive: 1.53 (compound concentration: 10 uM).
For the compound `CN(C)CCSC(=O)N1c2ccccc2C(C)(C)c2ccccc21` [botiacrine], the TEAD-luciferase reporter activity is inactive: 3.25 (compound concentration: 200 nM), inactive: 1.5 (compound concentration: 2 uM) and inactive: 0.612 (compound concentration: 10 uM).
The corresponding values for `CC(C)=CC[C@H](O)C1=CC(=O)c2c(O)ccc(O)c2C1=O` are inactive: 0.749, inactive: -0.735 and inactive: -2.18.
With `CC1=Nc2ccc(Cl)cc2S(=O)(=O)N1`, the TEAD-luciferase reporter activity (compound concentration: 200 nM) is inactive: 1.85 and the TEAD-luciferase reporter activity (compound concentration: 10 uM) is inactive: -0.243.
On to `CC1=Nc2ccc(Cl)cc2S(=O)(=O)N1` [Diazoxide], for which the TEAD-luciferase reporter activity (compound concentration: 2 uM) was inactive: -0.85.
`CC(C)NCC(O)COc1cccc2ccccc12` (configuration not stated): the TEAD-luciferase reporter activity is, setting by setting: (compound concentration: 200 nM) inactive: -0.866; (compound concentration: 10 uM) inactive: -0.96.
On to `CC(C)NCC(O)COc1cccc2ccccc12` (configuration not stated) [propanolol], for which the TEAD-luciferase reporter activity (compound concentration: 2 uM) was inactive: 0.246.
For the compound `CC(C)OP(=O)(COC(CF)Cn1cnc2c(N)ncnc21)OC(C)C` (configuration not stated), the TEAD-luciferase reporter activity is inactive: -0.387 (compound concentration: 200 nM), inactive: -0.204 (compound concentration: 2 uM) and inactive: -0.403 (compound concentration: 10 uM).
As for `CC1(C)[C@H]2CC[C@@H](CNC(=O)c3ccc(Cl)cc3)[C@@H]1C2`, the TEAD-luciferase reporter activity (compound concentration: 200 nM) is inactive: -1.64 and the TEAD-luciferase reporter activity (compound concentration: 10 uM) was inactive: 0.39.
Consider `COc1cc2nc(N3CCN(C(=O)C4CCCO4)CC3)nc(N)c2cc1OC` (configuration not stated) [Terazosin hydrochloride], for which, where the note is “compound concentration: 2 uM”, the TEAD-luciferase reporter activity is inactive: -1.74.
In the case of `COc1cc2nc(N3CCN(C(=O)C4CCCO4)CC3)nc(N)c2cc1OC` (configuration not stated) [Terazosin], the TEAD-luciferase reporter activity reads like this: (compound concentration: 200 nM) inactive: -2.09; (compound concentration: 10 uM) inactive: -1.39.
Turning to `OCCOc1ccc(/C(=C(/CCCl)c2ccccc2)c2ccccc2)cc1` [Ospemifene], the TEAD-luciferase reporter activity reads like this: (compound concentration: 200 nM) inactive: -1.17; (compound concentration: 2 uM) inactive: -1.73; (compound concentration: 10 uM) inactive: -0.996.
As to `OC(CCCN1CCCCC1)(c1ccccc1)c1ccccc1` [Difenidol hydrochloride], the TEAD-luciferase reporter activity is inactive: 0.0821 (compound concentration: 200 nM) and inactive: 0.0555 (compound concentration: 10 uM).
With `OC(CCCN1CCCCC1)(c1ccccc1)c1ccccc1` [Diphenidol hydrochloride], the TEAD-luciferase reporter activity (compound concentration: 2 uM) is inactive: -1.34.
For `COc1ccc2c(c1)c(CC(=O)O)c(C)n2C(=O)/C=C/c1ccccc1`, the TEAD-luciferase reporter activity is inactive: -1.54 (compound concentration: 200 nM), inactive: -0.77 (compound concentration: 2 uM) and inactive: 0.868 (compound concentration: 10 uM).
Consider `CC(C)CC(=O)Nc1cncc(-c2ccc3[nH]nc(-c4nc5cncc(-c6cccc(F)c6)c5[nH]4)c3c2)c1`, for which the TEAD-luciferase reporter activity runs as follows: (compound concentration: 200 nM) inactive: 0.0438; (compound concentration: 2 uM) active: 26.5; (compound concentration: 10 uM) active: 10.1.
The corresponding values for `CC1OC2(CCN(C)CC2)CC1=O` (configuration not stated) are inactive: 2.01, inactive: -1.51 and inactive: 2.11.
The corresponding values for `NC(=O)CC(c1ccccc1)N1C(=O)c2ccccc2C1=O` (configuration not stated) are inactive: -0.742, inactive: -0.628 and inactive: -1.08.
The corresponding values for `CC(C)=CCC/C(C)=C/CC/C(C)=C/CN1CCN(Cc2ccc3c(c2)OCO3)CC1` are inactive: -0.6, inactive: 3.14 and inactive: -1.74.
Consider `Cn1nnnc1SCC1=C(C(=O)[O-])N2C(=O)[C@@H](NC(=O)[C@H](O)c3ccccc3)[C@H]2SC1`, for which the TEAD-luciferase reporter activity by setting is: (compound concentration: 200 nM) inactive: 4.22; (compound concentration: 10 uM) inactive: 1.94.
As for `C[C@H]1Cc2ccccc2N1C(=O)Cc1nc(N2CCOCC2)cc(=O)[nH]1`, the TEAD-luciferase reporter activity reads like this: (compound concentration: 200 nM) inactive: -0.966; (compound concentration: 2 uM) inactive: -1.13; (compound concentration: 10 uM) inactive: -1.1.
With `CNS(=O)(=O)c1cc(OC)c(OC)c(C(=O)NCc2cccs2)c1`, the TEAD-luciferase reporter activity runs as follows: (compound concentration: 200 nM) inactive: 0.448; (compound concentration: 2 uM) inactive: -0.307; (compound concentration: 10 uM) inactive: -0.407.
The corresponding values for `COc1ccc2c(c1)[C@@H]1C[C@]1(C(=O)N1C3CCC1CN(C)C3)Cn1c-2c(C2CCCCC2)c2ccc(C(=O)NS(=O)(=O)N(C)C)cc21` [Beclabuvir] are inactive: -0.637, inactive: 1.11 and active: 5.01.
The corresponding values for `C[n+]1cccc(C(N)=O)c1` are inactive: -0.729, inactive: -0.142 and inactive: 0.0463.
